Laboratory results from US20080300231A1 (priority 2005, published 2008).

Assay: general procedure: solution-phase peptide synthesis; PyBOP, N,N-diisopropylethylamine

Substance	step yield (late stage modification step, tetrahydrochloride)	step yield (coupling step, hydrochloride)
1-{[(8S,11S,14S)-14-Amino-11-(3-aminopropyl)-5,17-dihydroxy-10,13-dioxo-9,12-diazatricyclo[14.3.1.1^2,6]henicosa-1(20),2(21),3,5,16,18-hexaen-8-yl]carbonyl}-L-prolyl-N-(2-aminoethyl)-L-ornithinamide tetrahydrochloride	96% of theory	–
1-{[(8S,11S,14S)-14-[(tert-Butoxycarbonyl)amino]-11-{3-[(tert-butoxycarbonyl)amino]-propyl}-5,17-dihydroxy-10,13-dioxo-9,12-diazatricyclo[14.3.1.1^2,6]henicosa-1(20), 2(21),3,5,16,18-hexaen-8-yl]carbonyl}-L-prolyl-N^5-(tert-butoxycarbonyl)-N-{2-[(tert-butoxycarbonyl)amino]ethyl}-L-ornithinamide	–	66% of theory
